The target in this assay is T1, EGFP-tagged Inversin (EGFP-INVS) (UniProt Q9Y283).
T1 sequence: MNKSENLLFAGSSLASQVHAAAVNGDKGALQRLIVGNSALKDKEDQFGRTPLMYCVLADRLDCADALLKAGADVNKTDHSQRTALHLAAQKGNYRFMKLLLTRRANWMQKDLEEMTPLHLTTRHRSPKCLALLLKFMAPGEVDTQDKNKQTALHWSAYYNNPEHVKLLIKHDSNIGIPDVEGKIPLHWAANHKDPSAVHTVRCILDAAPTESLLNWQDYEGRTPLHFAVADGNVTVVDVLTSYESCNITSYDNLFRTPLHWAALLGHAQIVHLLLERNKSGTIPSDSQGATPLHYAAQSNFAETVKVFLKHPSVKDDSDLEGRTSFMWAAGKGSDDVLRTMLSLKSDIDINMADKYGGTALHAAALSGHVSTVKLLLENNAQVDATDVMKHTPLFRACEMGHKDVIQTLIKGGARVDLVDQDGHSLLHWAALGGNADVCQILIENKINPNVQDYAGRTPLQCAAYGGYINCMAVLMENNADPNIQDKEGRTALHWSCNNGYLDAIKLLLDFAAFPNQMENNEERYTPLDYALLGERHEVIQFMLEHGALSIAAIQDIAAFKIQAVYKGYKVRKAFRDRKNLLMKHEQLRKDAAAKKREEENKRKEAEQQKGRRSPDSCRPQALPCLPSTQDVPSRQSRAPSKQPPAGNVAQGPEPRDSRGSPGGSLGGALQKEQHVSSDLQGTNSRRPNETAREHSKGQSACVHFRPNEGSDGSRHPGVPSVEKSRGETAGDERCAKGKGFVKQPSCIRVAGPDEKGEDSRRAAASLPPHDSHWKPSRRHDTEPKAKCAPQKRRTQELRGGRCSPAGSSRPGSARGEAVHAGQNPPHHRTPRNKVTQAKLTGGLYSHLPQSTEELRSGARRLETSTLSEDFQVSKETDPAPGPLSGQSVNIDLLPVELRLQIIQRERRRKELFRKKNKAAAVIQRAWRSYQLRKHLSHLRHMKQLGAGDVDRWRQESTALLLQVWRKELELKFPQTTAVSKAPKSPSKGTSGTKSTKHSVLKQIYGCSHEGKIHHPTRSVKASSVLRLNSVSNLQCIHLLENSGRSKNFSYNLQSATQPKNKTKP
The experiment in a line: pull-down; GFP-pulldown with GFP-Trap-MA magnetic agarose beads (ChromoTek) from HEK293T cells co-transfected for 48 h and lysed in RIPA buffer (50 mM Tris-HCl pH 8.0, 150 mM NaCl, 1% NP-40, 0.5% sodium deoxycholate, 0.1% SDS); detection by western blotting. On the technique in general: A western blot detects proteins with antibodies after separation by electrophoresis.

Results are given in words; binding and its absence hold for the method and conditions named. In cells and extracts the contact can be indirect. Some results given as binding are weak or reduced against the parent protein; the word gives no strength. Where a sequence is shown, tags or fusion partners need not be part of it.

B1: MYC-BBS6 (protein, UniProt Q9NPJ1 1-570)
chain: MSRLEAKKPSLCKSEPLTTERVRTTLSVLKRIVTSCYGPSGRLKQLHNGFGGYVCTTSQSSALLSHLLVTHPILKILTASIQNHVSSFSDCGLFTAILCCNLIENVQRLGLTPTTVIRLNKHLLSLCISYLKSETCGCRIPVDFSSTQILLCLVRSILTSKPACMLTRKETEHVSALILRAFLLTIPENAEGHIILGKSLIVPLKGQRVIDSTVLPGILIEMSEVQLMRLLPIKKSTALKVALFCTTLSGDTSDTGEGTVVVSYGVSLENAVLDQLLNLGRQLISDHVDLVLCQKVIHPSLKQFLNMHRIIAIDRIGVTLMEPLTKMTGTQPIGSLGSICPNSYGSVKDVCTAKFGSKHFFHLIPNEATICSLLLCNRNDTAWDELKLTCQTALHVLQLTLKEPWALLGGGCTETHLAAYIRHKTHNDPESILKDDECTQTELQLIAEAFCSALESVVGSLEHDGGEILTDMKYGHLWSVQADSPCVANWPDLLSQCGCGLYNSQEELNWSFLRSTRRPFVPQSCLPHEAVGSASNLTLDCLTAKLSGLQVAVETANLILDLSYVIEDKN
Turning to B1, the binding entry is given as “binds”.

These data come from paper PMC10485897.
